Assay results published in PMC11759936.

Tests used:
[1] = target: OsHsp40-1 (CoIP construct) (rice (Oryza sativa L.)); assay: co-IP; coimmunoprecipitation (CoIP); details in the supplementary data
[2] = target: OsHsp40-1 (BiFC fusion) (rice (Oryza sativa L.)); assay: split reporter; BiFC in rice protoplasts; 1300S-YN + 2300S-YC as negative control
[3] = target: GST-OsHsp40-1 (rice (Oryza sativa L.)); assay: pull-down; GST pull-down of OsHsp40-1 with OsGBSSI or OsPPDKB; which partner carried GST is not told
[4] = target: OsHsp40-1 (LCI fusion) (rice (Oryza sativa L.)); assay: split reporter; firefly luciferase complementation imaging (LCI) in Nicotiana benthamiana leaves

B1: OsGBSSI (CoIP construct) (enzyme, UniProt Q0DEV5 78-609)
chain: ATGAGMNVVFVGAEMAPWSKTGGLGDVLGGLPPAMAANGHRVMVISPRYDQYKDAWDTSVVAEIKVADRYERVRFFHCYKRGVDRVFIDHPSFLEKVWGKTGEKIYGPDTGVDYKDNQMRFSLLCQAALEAPRILNLNNNPYFKGTYGEDVVFVCNDWHTGPLASYLKNNYQPNGIYRNAKVAFCIHNISYQGRFAFEDYPELNLSERFRSSFDFIDGYDTPVEGRKINWMKAGILEADRVLTVSPYYAEELISGIARGCELDNIMRLTGITGIVNGMDVSEWDPSKDKYITAKYDATTAIEAKALNKEALQAEAGLPVDRKIPLIAFIGRLEEQKGPDVMAAAIPELMQEDVQIVLLGTGKKKFEKLLKSMEEKYPGKVRAVVKFNAPLAHLIMAGADVLAVPSRFEPCGLIQLQGMRYGTPCACASTGGLVDTVIEGKTGFHMGRLSVDCKVVEPSDVKKVAATLKRAIKVVGTPAYEEMVRNCMNQDLSWKGPAKNWENVLLGLGVAGSAPGIEGDEIAPLAKENVAAP
For B1, the binding [1] was “binds”.

B2: OsPPDKB (CoIP construct) (enzyme, UniProt Q6AVA8 72-947)
chain: TTKKRVFHFGKGKSEGNKAMKDLLGGKGANLAEMASIGLSVPPGFTVSTEACQQYQAAGKTLPAGLWEEIVEGLQWVEEYMAARLGDPARPLLLSVRSGAAVSMPGMMDTVLNLGLNDEVAAGLAAKSGDRFAYDSYRRFLDMFGNVVMDIPHALFEEKLEAMKAVKGLHNDTDLTATDLKELVAQYKDVYVEAKGEPFPSDPKKQLQLAVLAVFNSWDSPRAIKYRSINKITGLKGTAVNVQTMVFGNMGNTSGTGVLFTRNPSTGEKKLYGEFLVNAQGEDVVAGIRTPEDLDAMRDHMPEPYEELVENCKILESHYKEMMDIEFTVQENRLWMLQCRTGKRTGKGAVKIAVDMVNEGLVERRTALKMVEPGHLDQLLHPQFENPSGYKDKVIATGLPASPGAAVGQIVFTAEDAEAWHAQGKDVILVRTETSPEDVGGMHAAVGILTARGGMTSHAAVVARGWGKCCVSGCSSVRVNDASKIVVIEDKALHEGEWLSLNGSTGEVIIGKQPLCPPALSGDLETFMSWVDEVRKLKVMANADTPEDATTARQNGAEGIGLCRTEHMFFASDERIKAVRQMIMASSLELRQKALDRLLPYQRSDFEGIFRAMDGLPVTIRLLDPPLHEFLPEGHVEDMVRELCSETGAAQDDVLARVEKLSEVNPMLGFRGCRLGISYPELTEMQARAIFEAAITMTNQGIQVFPEIMVPLVGTPQELGHQVDVIRQIANKVFTDMGKTIGYKVGTMIEIPRAALVADEIAEQAEFFSFGTNDLTQMTFGYSRDDVGKFLPIYLSQGILQHDPFEVLDQRGVGELVKLATERGRKARPNLKVGICGEHGGEPLSVAFFAKAGLDYVSCSPFRVPIARLAAAQVLL
With B2 the binding [1] was “binds”.

B3: OsGBSSI (BiFC fusion) (enzyme, UniProt Q0DEV5 78-609)
chain: B1 chain
In the case of B3, the binding [2] is reported as “binds”.

B4: OsPPDKB (BiFC fusion) (enzyme, UniProt Q6AVA8 72-947)
chain: B2 chain
In the case of B4, the binding [2] is reported as “binds”.

B5: His-OsGBSSI (enzyme, UniProt Q0DEV5 78-609)
chain: B1 chain
B5 was tested, and the binding [3] was “binds”.

B6: His-OsPPDKB (enzyme, UniProt Q6AVA8 72-947)
chain: B2 chain
With B6 the binding [3] was “binds”.

B7: OsGBSSI (LCI fusion) (enzyme, UniProt Q0DEV5 78-609)
chain: B1 chain
In the case of B7, the binding [4] is reported as “binds”.

B8: OsPPDKB (LCI fusion) (enzyme, UniProt Q6AVA8 72-947)
chain: B2 chain
For B8, the binding [4] was “binds”.

These are yes or no findings as the source states them, for the method shown. Binding seen in cells or lysates may run through a third protein. Binding can be weak; no strength is given. For some assays here: Tags and fused reporters may be left off the sequences shown.
